This is an account of results in PubChem BioAssay AID296 (DTP/NCI, 2004).

The list does not hold the whole screen: it covers a few groups of compounds. Not every dose and run of a compound is shown. T/C gives the treated animals as a percentage of the vehicle group. Schedules are NCI's codes, taken here to give the interval after Q, in days (D) or hours (H), and the number of doses after X. Some T/C values are marked as having no survivor count here; that says nothing about deaths at the dose. Some values lie below zero, which means that the treated tumours became smaller. Some entries hold several experiments; the results are listed from low to high.

This test has as its system MX-1 breast xenograft, nude mice, tumor weight T/C. The test is described as follows: NCI In Vivo Anticancer Drug Screen. Data for tumor model Human Mammary Carcinoma MX-1 Xenograft (intrarenal inoculation) in NU/NU Swiss (nude) mice. As to conditions: T/C endpoint: mean tumor weight change, evaluated on day 11, higher T/C = larger tumour. The method, then: The antitumor activity of compounds was measured in mice bearing transplantable tumors. Survival or tumor size were measured and the results are expressed as the measurement made in the treated group (T) divided by the measurement made in the vehicle treated control group (C). The tumor model used in this assay is Human Mammary Carcinoma MX-1 Xenograft (intrarenal inoculation) in NU/NU Swiss (nude) mice

Setting [1] is: dose: 0.12 mg/kg/injection, schedule: Q01DX010 (sc), vehicle: Klucel (hydroxypropylcellulose) (HPC).
The mark [2] stands for this setting: dose: 0.25 mg/kg/injection, schedule: Q01DX010 (sc), vehicle: Klucel (hydroxypropylcellulose) (HPC).
Where [3] appears, read: dose: 0.5 mg/kg/injection, schedule: Q01DX010 (sc), vehicle: Klucel (hydroxypropylcellulose) (HPC).
The mark [4] stands for this setting: dose: 1.0 mg/kg/injection, schedule: Q01DX010 (sc), vehicle: Klucel (hydroxypropylcellulose) (HPC).

For the molecule `CC1=CC2OC3CC4OC(=O)/C=C/C=C/C(C(C)O)OCC(O)C(C)CC(=O)OCC2(CC1O)C4(C)C31CO1` (stereo unspecified), the T/C is 491 % of control [survivor count not shown] (dose: 0.06 mg/kg/injection, schedule: Q01DX010 (sc), vehicle: Klucel (hydroxypropylcellulose) (HPC)); 509 % of control [survivor count not shown] under setting [1]; 97 % of control [survivor count not shown] under setting [2]; 124 [survivor count not shown] and 240 % of control [survivor count not shown] under setting [3]; 60 % of control [survivor count not shown] under setting [4].
Take `CC1=C[C@H]2O[C@@H]3C[C@H]4OC(=O)/C=C\C=C\C(C(C)O)OCC(O)C(C)CC(=O)OC[C@@]2(C[C@@H]1O)[C@]4(C)[C@@]31CO1` (stereo partly specified): the T/C under setting [1] is 55 % of control [survivor count not shown]; the T/C under setting [2] is 32 [survivor count not shown] and 80 % of control [survivor count not shown]; the T/C under setting [3] was 91 [survivor count not shown] and 113 % of control [survivor count not shown]; the T/C under setting [4] is -29 [survivor count not shown], 16 [survivor count not shown], 37 [survivor count not shown], 128 % of control [survivor count not shown]; the T/C (dose: 2.0 mg/kg/injection, schedule: Q01DX010 (sc), vehicle: Klucel (hydroxypropylcellulose) (HPC)) is 34 [survivor count not shown] and 47 % of control [survivor count not shown].
Consider `C[C@@H](O)[C@H]1/C=C/C=C\C(=O)O[C@@H]2C[C@H]3O[C@@H]4[C@@H]5OC5(C)CCC4(COC(=O)[C@H]4O[C@]4(C)[C@@H](O)CO1)[C@]2(C)[C@]31CO1` (stereo partly specified), for which the T/C was 165 % of control [survivor count not shown] (dose: 2.5 mg/kg/injection, schedule: Q01DX010 (sc), vehicle: saline + alcohol); 120 [survivor count not shown] and 273 % of control [survivor count not shown] (dose: 5.0 mg/kg/injection, schedule: Q01DX010 (sc), vehicle: saline + alcohol); -48 [survivor count not shown], 78 [survivor count not shown], 166 % of control [survivor count not shown] (dose: 10.0 mg/kg/injection, schedule: Q01DX010 (sc), vehicle: saline + alcohol); 61 [survivor count not shown] and 65 % of control [survivor count not shown] (dose: 20.0 mg/kg/injection, schedule: Q01DX010 (sc), vehicle: saline + alcohol); 55 % of control [survivor count not shown] (dose: 40.0 mg/kg/injection, schedule: Q01DX010 (sc), vehicle: saline + alcohol).
With `CC(=O)OCC12CCC(C)=CC1OC1C(O)C(OC(C)=O)C2(C)C12CO2` (stereo unspecified), the T/C runs as follows: (dose: 0.13 mg/kg/injection, schedule: Q01DX010 (sc), vehicle: saline) 140 % of control [survivor count not shown]; (dose: 0.25 mg/kg/injection, schedule: Q01DX010 (sc), vehicle: saline) 128 % of control [survivor count not shown].
Turning to `CC1=C[C@H]2O[C@@H]3[C@H](O)[C@@H](O)[C@](C)([C@@]2(CO)CC1)[C@@]31CO1`, where the note is “dose: 2.0 mg/kg/injection, schedule: Q01DX010 (sc), vehicle: saline”, the T/C was 163 % of control [survivor count not shown].
As to `CC(=O)OC[C@]12CC(=O)C(C)=C[C@H]1O[C@@H]1C(=O)[C@@H](OC(C)=O)[C@@]2(C)[C@@]12CO2`, the T/C (dose: 2.0 mg/kg/injection, schedule: Q04DX003 (sc), vehicle: water) is 72 % of control [survivor count not shown].
In the case of `C=C(C)C(=O)OCC12CCC(C)=CC1OC1C(=O)C(OC(=O)C(=C)C)C2(C)C12CO2` (stereo unspecified), the T/C runs as follows: (dose: 4.0 mg/kg/injection, schedule: Q04DX003 (sc), vehicle: saline with Tween-80) 98 % of control [survivor count not shown]; (dose: 8.0 mg/kg/injection, schedule: Q04DX003 (sc), vehicle: saline with Tween-80) 102 % of control [survivor count not shown].
